Measured data: PubChem BioAssay AID602196 (INSERM, 2012)

Test: 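Modifiers of cisplatin sensitivity in A549 cells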
System: human A549 lung cancer cells
Reagent: siRNA pair against human genes
Time to read-out: 48 h transfection before cisplatin; time from cisplatin to read-out not stated
Treatment: cisplatin at a dose killing half of control-siRNA cells; exact dose and duration not given
Detection: 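Shift in cisplatin death relative to control siRNA, from -50 (all cells die) to +50 (no cells die); siRNAs harmful on their own scored 0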
Reading the numbers: two-siRNA summed score (-2 to +2): higher = both siRNAs protect from cisplatin killing; -2 means both sensitise; mean protection from cisplatin (shift in death) and protection from cisplatin (shift in death), siRNA C and protection from cisplatin (shift in death), siRNA D: higher = protection from cisplatin killing
Hit rule: 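Each siRNA scores 0 if harmful alone by LDH or WST-1, otherwise +1 if it reduces and -1 if it increases cisplatin killing; a gene is active when both siRNAs agree (sum +2 or -2)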
Calls: active = both siRNAs shift cisplatin killing the same way; inactive = no consistent shift, or siRNA harmful alone
The whole screen tested about 23,000 reagents; shown is an unselected part. 455 of them (2%) were called active. 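Active includes both protection and sensitisation; some change values fall well beyond the stated -50 to +50 range.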 Entries without a mark were called inactive. No sequences are given here. Not given: the amount of reagent.

no.	Target gene	two-siRNA summed score (-2 to +2)	mean protection from cisplatin (shift in death) (%)	protection from cisplatin (shift in death), siRNA C (%)	protection from cisplatin (shift in death), siRNA D (%)
1	LOC388914	0	6.4	21.7	-8.9
2	SPATS2L	0	5.4	-6.1	17
3	OR13H1	1	12.9	21.9	3.9
4	TSPYL2	0	-1.2	-12	9.6
5	EYA4	0	7.2	2.2	12.2
6	LOC399888	0	4.3	8.2	0.3
7	SIAH2	0	-3.4	2.8	-9.5
8	LOC90925	0	2.2	-0.7	5.2
9	GRHL2	0	10.1	3.5	16.7
10	PON1	0	-10.3	-11.6	-9
11	LBH	-1	-13.4	-27.3	0.5
12	RLF	-1	-3.6	-18.4	11.3
13	SEC24A	0	1.9	-3	6.8
14	ASCL4	0	6.5	2.5	10.5
15	LOC441168	0	13.2	19.3	7
16	VPS45	2 (active)	16.8	14.2	19.5

Active calls (from the list above):
Target gene	two-siRNA summed score (-2 to +2)	mean protection from cisplatin (shift in death) (%)	protection from cisplatin (shift in death), siRNA C (%)	protection from cisplatin (shift in death), siRNA D (%)
VPS45	2 (active)	16.8	14.2	19.5

Next entries follow.
no.	Target gene	two-siRNA summed score (-2 to +2)	mean protection from cisplatin (shift in death) (%)	protection from cisplatin (shift in death), siRNA C (%)	protection from cisplatin (shift in death), siRNA D (%)
17	ABCC3	0	-10.9	-28.7	6.9
18	SURF4	1	15.7	11	20.4
19	ARL6IP6	0	2.2	1.2	3.1
20	LOC441435	0	12.9	10.7	15.1
21	SPRYD3	0	16	33.4	-1.4
22	GPR50	0	-1.9	3.7	-7.4
23	DTX3L	0	-2.3	7.8	-12.3
24	B3GALT5-AS1	0	1.3	1.1	1.5
25	MYLK2	0	4.8	-4.7	14.4
26	TMED6	0	-2.5	3	-7.9
27	SRPK1	-1	-14.1	-12.6	-15.5
28	SMARCAD1	0	-4.9	-11.8	1.9
29	SESTD1	1	9.3	1.5	17.2
30	LOC441071	0	9	5.8	12.3
31	COL1A2	0	10.7	8.7	12.7
32	ACTB	0	-2.1	-6.4	2.3
33	SMIM22	1	16.2	15	17.4
34	SCPEP1	0	3.5	19.3	-12.4
35	VASP	0	-6.8	-4.4	-9.2
36	LOC440604	0	2.9	9	-3.2
37	SLC25A3	-1	-10.2	-12.2	-8.1
38	RPL18	0	22.7	26.9	18.4
39	LOC392030	1	7.8	0.3	15.3
